From PMC11477372 come the findings set out here.

By UniProt entry, the sequences of proteins in these tests, tags left out.
UniProt P63104: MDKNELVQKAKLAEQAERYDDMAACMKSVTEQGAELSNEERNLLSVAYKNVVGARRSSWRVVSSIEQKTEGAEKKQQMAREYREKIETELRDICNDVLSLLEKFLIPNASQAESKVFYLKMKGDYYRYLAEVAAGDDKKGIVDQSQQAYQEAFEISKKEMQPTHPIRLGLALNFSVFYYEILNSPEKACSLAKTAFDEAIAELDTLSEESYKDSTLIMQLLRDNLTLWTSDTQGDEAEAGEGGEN
UniProt P63086: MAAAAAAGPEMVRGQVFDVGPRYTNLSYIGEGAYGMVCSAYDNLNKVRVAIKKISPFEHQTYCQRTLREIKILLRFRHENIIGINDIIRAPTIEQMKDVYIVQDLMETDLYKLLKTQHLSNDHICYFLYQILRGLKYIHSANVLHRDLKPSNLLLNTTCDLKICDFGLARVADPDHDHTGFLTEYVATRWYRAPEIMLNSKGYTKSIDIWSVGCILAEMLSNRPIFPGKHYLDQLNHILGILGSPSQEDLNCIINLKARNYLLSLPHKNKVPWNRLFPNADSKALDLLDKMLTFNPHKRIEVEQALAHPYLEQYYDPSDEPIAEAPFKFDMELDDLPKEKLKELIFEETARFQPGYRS

No constants are given. Whether binding was seen depends on the method and setting. Some results given as binding are weak or reduced against the parent protein; the word gives no strength. For some assays here: Sequences can lack the tags named with a protein.

One test concerns the target T1, TagBFP–KSR1 (UniProt Q8IVT5).
T1 sequence: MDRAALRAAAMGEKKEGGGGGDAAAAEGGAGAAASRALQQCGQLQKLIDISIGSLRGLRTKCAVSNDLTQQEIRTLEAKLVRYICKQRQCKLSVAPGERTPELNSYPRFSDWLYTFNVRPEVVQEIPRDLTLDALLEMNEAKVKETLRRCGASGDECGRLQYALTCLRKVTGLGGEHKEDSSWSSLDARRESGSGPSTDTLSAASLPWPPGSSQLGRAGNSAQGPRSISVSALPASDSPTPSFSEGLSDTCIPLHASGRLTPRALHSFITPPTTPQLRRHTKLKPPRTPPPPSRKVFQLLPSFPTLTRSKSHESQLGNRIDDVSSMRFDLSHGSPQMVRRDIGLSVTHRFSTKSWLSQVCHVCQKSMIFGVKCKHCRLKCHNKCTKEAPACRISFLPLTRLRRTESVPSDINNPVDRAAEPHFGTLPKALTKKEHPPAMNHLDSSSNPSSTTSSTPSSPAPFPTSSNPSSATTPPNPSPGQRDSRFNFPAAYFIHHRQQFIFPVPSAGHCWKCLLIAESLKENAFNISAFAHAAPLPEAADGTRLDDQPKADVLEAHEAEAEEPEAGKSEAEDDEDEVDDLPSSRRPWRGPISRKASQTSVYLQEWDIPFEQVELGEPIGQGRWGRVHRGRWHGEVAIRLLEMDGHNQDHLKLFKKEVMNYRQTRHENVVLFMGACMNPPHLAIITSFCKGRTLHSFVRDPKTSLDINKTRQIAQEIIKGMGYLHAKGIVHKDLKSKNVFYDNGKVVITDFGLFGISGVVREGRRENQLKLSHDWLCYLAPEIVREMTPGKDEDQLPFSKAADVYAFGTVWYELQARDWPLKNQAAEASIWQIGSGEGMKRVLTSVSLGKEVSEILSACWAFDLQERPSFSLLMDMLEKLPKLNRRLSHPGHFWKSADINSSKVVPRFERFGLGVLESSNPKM
In words: translocation-based cellular assay (co-translocation of eGFP-prey with PKCδ–mRFP-bait to the plasma membrane, confocal imaging); living HEK-293T cells co-transfected with three constructs (PKCδ–mRFP–MEK2 bait, TagBFP–KSR1, eGFP–14-3-3ζ); quiescent cells, no EGF; PMA treatment; images 3–5 min after PMA.

In test [1] the target is T2, PKCδ–mRFP–KSR1 (UniProt Q8IVT5).
T2 sequence: T1 sequence
The test can be described thus: translocation-based cellular assay (co-translocation of eGFP-prey with PKCδ–mRFP-bait to the plasma membrane, confocal imaging); living HEK-293T cells co-transfected with one bait and one prey; quiescent cells, without serum or EGF stimulation; PMA treatment; images 3–5 min after PMA.

In test [2] the target is T2, PKCδ–mRFP–KSR1. In words: translocation-based cellular assay (co-translocation of eGFP-prey with PKCδ–mRFP-bait to the plasma membrane, confocal imaging); living HEK-293T cells co-transfected with one bait and one prey; serum-starved 16–18 h, 100 ng/mL EGF for 5 min, then 1 μM PMA in serum-free DMEM; 37 °C; images 3–5 min after PMA.
Test [3] has as its target PKCδ–mRFP–MEK2 (UniProt P36507). In words: translocation-based cellular assay (co-translocation of eGFP-prey with PKCδ–mRFP-bait to the plasma membrane, confocal imaging); living HEK-293T cells co-transfected with three constructs (PKCδ–mRFP–MEK2 bait, TagBFP–KSR1, eGFP–14-3-3ζ); quiescent cells, no EGF; PMA treatment; images 3–5 min after PMA.
For test [4] the target is unchanged. In words: translocation-based cellular assay (co-translocation of eGFP-prey with PKCδ–mRFP-bait to the plasma membrane, confocal imaging); living HEK-293T cells co-transfected with three constructs (PKCδ–mRFP–MEK2 bait, TagBFP–KSR1, eGFP-prey); serum-starved, stimulated with EGF, treated with PMA; images 3–5 min after PMA.

For “eGFP–14-3-3ζ (from UniProt P63104 1-245)”, the binding entry with TagBFP–KSR1 and with PKCδ–mRFP–KSR1 [1] was “binds” throughout.
In the case of eGFP–ERK2 (from UniProt P63086 1-358), in the test with PKCδ–mRFP–KSR1 [2], the binding result is listed as “no binding”.

B1: TagBFP–KSR1 (protein, UniProt Q8IVT5 1-923)
chain: T1 sequence
Consider B1, for which the binding result with PKCδ–mRFP–MEK2 [3] and with PKCδ–mRFP–MEK2 [4] was “binds” throughout.
